Legend:
[1] = tested on: sliced 1-MCP pre-treated pear fruit; assay: Consumer preference trials 2014 and 2015 of sliced 1-MCP fruit treated with glyoxylic acid; conditions: rank among 4 samples
[2] = tested on: 1-MCP pre-treated fruit; assay: Large scale consumer trial 2016 (overall liking); parameters: species or system pear

SMILES: O=CC(=O)O [glyoxylic acid]
- Appearance ranking ([1]; 1% RC, 2014): ↓
- Taste/Flavor ranking ([1]; 1% RC, 2015 - Anjou): ↓
- Texture ranking ([1]; 1% RC, 2015 - Anjou): ↓
- Appearance ranking ([1]; 2% RC, 2014): ↓
- Texture ranking ([1]; 2% RC, 2014): ↓
- Appearance ranking ([1]; 2% RC, 2015 - Anjou): ↓
- Overall acceptance ranking ([1]; 2% RC, 2015 - Anjou): ↓
- Taste/Flavor ranking ([1]; 2% RC, 2015 - Anjou): ↓
- Texture ranking ([1]; 2% RC, 2015 - Anjou): ↓
- Overall acceptance ranking ([1]; 3% RC, 2014): ↓
- Taste/Flavor ranking ([1]; 3% RC, 2014): ↓
- Percentage of panelists who rated the sample as 1 (most preferred) ([2]; 1% RC): (18%)
- Percentage of panelists who rated the sample as 2 ([2]; 1% RC): (24%)
- Percentage of panelists who rated the sample as 3 ([2]; 1% RC): (30%)
- Percentage of panelists who rated the sample as 4 (least preferred) ([2]; 1% RC): (28%)
- Percentage of panelists who rated the sample as 1 (most preferred) ([2]; 2% RC): (35%)
- Percentage of panelists who rated the sample as 2 ([2]; 2% RC): (19%)
- Percentage of panelists who rated the sample as 3 ([2]; 2% RC): (24%)
- Percentage of panelists who rated the sample as 4 (least preferred) ([2]; 2% RC): (22%)
- Percentage of panelists who rated the sample as 1 (most preferred) ([2]; 3% RC): (28%)
- Percentage of panelists who rated the sample as 2 ([2]; 3% RC): (32%)
- Percentage of panelists who rated the sample as 3 ([2]; 3% RC): (20%)
- Percentage of panelists who rated the sample as 4 (least preferred) ([2]; 3% RC): (20%)

Source: patent US12653181B2, “Control of ripening and senescence in pre-harvest and post-harvest plants and plant materials by manipulating alternative oxidase activity” (Washington State University, priority 2012, dated 2026)
